Source: US11141464B2 (Liu Jianning, priority 2018, dated 2021)

Assay: general procedure: Fmoc solid-phase peptide synthesis; MBHA Rink amide resin; DIC/HOBt
Conditions: whole synthesis, scale 100 g resin

His-Gly-Glu-Gly-Thr-Phe-Pro-Ser-Asp-Val-Ser-Ser-Tyr-Leu-Glu-Gly-Gln-Ala-Ala-Lys-Glu-Phe-Ile-Ala-Trp-Leu-Val-Lys-Gly-Arg-NH2 (HGEGTFPSDVSSYLEGQAAKEFIAWLVKGR; C-terminal amide; (30)..(30) NH2)
crude mass: 220 g
